# The list shows a part of the results. Values are worked out from sequencing counts and are noisy.
# T1: Homer1 EVH1 domain
# T1 chain: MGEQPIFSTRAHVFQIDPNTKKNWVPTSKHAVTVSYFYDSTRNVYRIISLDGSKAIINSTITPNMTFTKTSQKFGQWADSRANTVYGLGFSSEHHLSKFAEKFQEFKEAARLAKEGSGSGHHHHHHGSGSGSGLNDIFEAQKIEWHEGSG
# B1: unnamed (peptide)
# chain: RAHIGVIPHFFMAVLYVFLHAILIMVQATTLNVAFN
# B2: unnamed (peptide)
# chain: LGLISGISIIVGTIIGSGIFVSPKSVLSNTEAVGPC
# B3: unnamed (peptide)
# chain: NPVQVSINQLTAAIYDLLRLHANSGRSPTDCAQSSK
# B4: unnamed (peptide)
# chain: SMFLPPTTVAGATLYSVAMYGGLVLFSMFLLYDTQK
# B5: unnamed (peptide)
# chain: ADVVQKLPEKKTQMYHALLKHLGTLAGSQIRNMASL
# B6: unnamed (peptide)
# chain: PYYYFQEGWNIFDGFIVTLSLVELGLANVVGLSVLR
# B7: unnamed (peptide)
# chain: VMGEQFSYASDCASFFSPGIWMGLLTSLFMLFIFTY
# B8: unnamed (peptide)
# chain: MDPKLGRMAASLLAVLLLLLERGMFSSPSPPPALLE
# B9: unnamed (peptide)
# chain: ATSRFTMNFLILYSFIPALVILGIVVFKIRDHLISR
# B10: unnamed (peptide)
# chain: TIITPKMLVNFVTEKNIISYPECMTQLYFFLIFAIA
# B11: unnamed (peptide)
# chain: EYFGERCGEKSMKTHSMIDSSLSKIALAAIAAFMSA
# B12: unnamed (peptide)
# chain: FFAMMLLMGTLYVHMFLFARLHVKRIAALPPADGVA
# B13: unnamed (peptide)
# chain: INYLNRALDIFNTSIVTPIYYVFFTTSVLTCSAILI
# B14: unnamed (peptide)
# chain: HVMIMSEAQDLRNYCINTAALFFAFVTMLLYILHAF
# B15: unnamed (peptide)
# chain: EETPPAGKEGDLPPLWWHIVPATAVGVRAKSSAAPA
# B16: unnamed (peptide)
# chain: KNILEKQFSKSSRAAHQDFANIMKMLRSLIQDGYMA
# B17: unnamed (peptide)
# chain: LPLRLFTLWRGPVVVAISLATFFFLYSFVRDVIHPY
# B18: unnamed (peptide)
# chain: VTGKNMKMHSFIGQSGVITDLYLFSCIISFSSFIYY
# B19: unnamed (peptide)
# chain: SLPLILTLLELCVTISTIAMWCNANCCNSREEISSP
# B20: unnamed (peptide)
# chain: IPAFKYYEACTFLVFLSNFIIQMLVTNRPPALAITY
# B21: unnamed (peptide)
# chain: KEPYFQPHSCLSHLLTSSAAILTVLCVVMIFLVSVI
# B22: unnamed (peptide)
# chain: KMSSLSSRGIQFLEPSTHFLSIVIVIFHCFAIQPLI
# B23: unnamed (peptide)
# chain: REEEEEEFNFKVIPPPPEFSNDPEPPAPALQYLGRQ
# B24: unnamed (peptide)
# chain: DFNPDPRSRYTFWTFVVGSTLVWLSMYGVNQAQVQR
# B25: unnamed (peptide)
# chain: QTFSIMAVLWALVSVSFLVLSCFPSLFPPGHGPLVS
# B26: unnamed (peptide)
# chain: LGRTLSRWVWISLYYVAFYVVMTGLFALCLYVLMQT
# B27: unnamed (peptide)
# chain: TSPIADFPAPPPYSAVTPPPDAFSRGVSSPIAGPAQ
# B28: unnamed (peptide)
# chain: LLFFTALMITVPIGLYFTTKSYIFEGALGMSNRDSY
# B29: unnamed (peptide)
# chain: MPSSVSWGILLLAGLCCLVPVSLAEDPQGDAAQKTD
# B30: unnamed (peptide)
# chain: VLTGLGFALCYSPAIAMVVKYFSRRKALAYGIAMSA
# B31: unnamed (peptide)
# chain: KNVTGFFQSLKSILTNPLYVIFLLLTLLQVSSFIGS
# B32: unnamed (peptide)
# chain: DLEAEKLVMFQRRYYKPGLLMMCFILPTLVPWYFWG
# B33: unnamed (peptide)
# chain: MRPVSVWQWSPWGLLLCLLCSSCLGSPSPSTGPEKK
# B34: unnamed (peptide)
# chain: QAASNGAVDAIGLATNVAANLIAFLAVLAFINAALS
# B35: unnamed (peptide)
# chain: LFLFFYIAIVLGNLLIVVTVQAHAHLLQSPMYYFLG
# B36: unnamed (peptide)
# chain: MGNRAHRPGRAAASATPSRLRSRTRAVHLPHRAQQC
# B37: unnamed (peptide)
# chain: PPQAFSKTKVRDLGRGGLYAFSKEEKVSEAQRVEAY
# B38: unnamed (peptide)
# chain: QYPAKGGPQQPHNKGCVAPTAGLAALLLAVAAGVLL
# B39: unnamed (peptide)
# chain: MQRLCVYVLIFALALAAFSEASWKPRSQQPDAPLGT
# B40: unnamed (peptide)
# chain: YFVFCLQIIISIGLMFYVVHRAQVELNAAIVTCEME
# B41: unnamed (peptide)
# chain: VKRFPYGPYIEDRFFLVLQNEFSVFFILSFMYIELI
# B42: unnamed (peptide)
# chain: TLVFAVFMGVWVTLFLEFWKRRQAELEYEWDTVELQ
# B43: unnamed (peptide)
# chain: SFFTGDVNYLFEGVCYGPLVLITCASLVICSISSYF
# B44: unnamed (peptide)
# chain: GLAGLFAGVFPRMAAISLGGFIFLGAYDRTHSLLLE
# Molecular target: T1, Homer1 EVH1 domain
# Assay: enrichment score (AUC of log2 frequency ratio across FACS sorting rounds) (log2 AUC); higher = stronger enrichment for Homer1 EVH1 binding
row,Binder,enrichment score
1,B1,1.66
2,B2,1.46
3,B3,-0.634
4,B4,3.56
5,B5,2.46
6,B6,-2.48
7,B7,2.97
8,B8,1.84
9,B9,2.66
10,B10,-0.209
11,B11,-1.98
12,B12,2.29
13,B13,2.51
14,B14,4.55
15,B15,0.424
16,B16,-0.283
17,B17,0.584
18,B18,-2.33
19,B19,1.99
20,B20,0.566
21,B21,2.09
22,B22,1.25

row,Binder,enrichment score
1,B23,4.84
2,B24,4.18
3,B25,3.07
4,B26,0.695
5,B27,-2.24
6,B28,1.62
7,B29,3.94
8,B30,0.0737
9,B31,1.54
10,B32,3.23
11,B33,0.315
12,B34,5.05
13,B35,-2.7
14,B36,1.62
15,B37,4.5
16,B38,1.47
17,B39,1.97
18,B40,1.16
19,B41,0.0269
20,B42,3.84
21,B43,-2.29
22,B44,-1.02

# — the supplement of paper PMC11237882
